Test results as given in PubChem BioAssay AID493014 (National Center for Advancing Translational Sciences (NCATS), 2011).
The other results are listed elsewhere or left out. These are further read-outs of the screen, such as a control signal, another cell line or another target. No call is given for them. The list favours compounds with an active or inconclusive main result. Potencies come from curve fits of mixed quality, noted in brackets.

Test: qHTS Assay to Find Inhibitors of Chronic Active B-Cell Receptor Signaling
Settings: ABC-DLBCL IkBa-CBG/CBR reporter, luminescence ratio (green luciferase fused to IkBa over red control in TMD8 lymphoma cells), 4 h
Method in brief: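 Doxycycline induced both beetle luciferases in TMD8 lymphoma cells; IKK-driven degradation limits the IkappaBalpha-fused green signal, while red luminescence normalises for cell number and nonspecific effects. Compounds tested up to 46 uM, 4 hrs.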

[1] = measured here: CBR red luminescence, cell number
[2] = measured here: IkBa-CBG green luminescence

| Structure (SMILES) | AC50 [1] | AC50 [2] |
| --- | --- | --- |
| COc1ccc(C(=O)c2coc3ccc(O)cc23)cc1 | 1.58 µM [rising, partial curve, poor fit] |  |
| Cc1ccc(-n2c3nc(=O)[nH]c(=O)c-3cc3cc([N+](=O)[O-])ccc32)cc1 | 1.46 µM [falling, full curve, poor fit] | 6.51 µM [falling, single point] |
| COc1ccc(CNC(=O)NC(C)(C)c2cccc(C(C)(C)NC(=O)NCc3ccc(OC)cc3)c2)cc1 | 4.11 µM [falling, full curve] |  |
| COc1ccccc1C/C(N)=N/OC(=O)c1cccs1 | 12.6 µM [rising, single point] |  |
| O=C(Nc1cccc(Cl)c1Cl)c1cc(S(=O)(=O)N2CCCCC2)ccc1F | 5.62 µM [falling, single point] |  |
| COc1cc2cc(C(=O)N3CCN(c4ccccc4OC)CC3)[nH]c2cc1OC | 22.4 µM [rising, single point] |  |
| C/C=C\C=C\C(=O)Nc1cccc(C2=NOC3(C2)C[C@H](C(N)=O)N(C(=O)c2ccccc2C(=O)c2ccccc2)C3)c1 (some centres not stated) | 22.4 µM [falling, single point] |  |
| O=C(CCNC(=O)c1ccc(Br)cc1)NNC(=O)c1ccccc1O | 23.1 µM [falling, single point] |  |
| COc1ccc(C(=O)c2ccc(N(C)C)cc2)c(OC)c1 | 0.112 µM [falling, full curve, poor fit] |  |
| CN(C)CCN(C(=O)c1ccccc1Cl)c1nc2c(Cl)cccc2s1 | 32.6 µM [falling, partial curve, poor fit] |  |
| COc1ccc(OC)c(S(=O)(=O)N2CCNCC2)c1 | 6.31 µM [rising, partial curve, poor fit] |  |
| CCOc1ccc(NC(=O)CCC(=O)n2nc(C)cc2C)cc1 | 18.4 µM [falling, single point] |  |
| COc1ccc(C(=O)/C(C#N)=N/Nc2cccc([N+](=O)[O-])c2)cc1 | 4.47 µM [rising, partial curve, poor fit] |  |
| COc1cc(/C=N/NC2=NC(C)(C)Cc3ccccc32)cc(OC)c1OC | 0.447 µM [rising, full curve] |  |
| COc1ccc(NC(=O)CN(C)C(=O)c2cc3c(s2)CCC3)cc1 | 14.6 µM [rising, partial curve] |  |
| N#C/C(=C\c1ccccc1OCc1ccc(C(=O)O)cc1)C(=O)Nc1ccc(O)cc1 | 15.8 µM [falling, partial curve, poor fit] |  |
| CCCNC(=O)c1ccc2c(c1)ncn2-c1ccccc1OC | 20.6 µM [falling, partial curve] |  |
| COC(=O)c1sc(N)c(C(=O)OC)c1COC(=O)CNS(=O)(=O)c1ccc(C)c(C)c1 | 1.64 µM [rising, partial curve, poor fit] |  |
| C=CCn1c(SCC(=O)Nc2nncs2)nnc1-c1ccco1 | 2.82 µM [rising, partial curve, poor fit] |  |
| CCc1nc2ccccc2c(C(=O)OCC(=O)Nc2ccc(S(=O)(=O)N3CCOCC3)cc2)c1C | 12.6 µM [falling, partial curve, poor fit] |  |

In another format: results already given
Structure (SMILES),AC50 [1],AC50 [2]
COc1cc2cc(C(=O)N3CCN(c4ccccc4OC)CC3)[nH]c2cc1OC,"22.4 µM [rising, single point]",
O=C(CCNC(=O)c1ccc(Br)cc1)NNC(=O)c1ccccc1O,"23.1 µM [falling, single point]",
CCOc1ccc(NC(=O)CCC(=O)n2nc(C)cc2C)cc1,"18.4 µM [falling, single point]",

(cont.)

| Structure (SMILES) | AC50 [1] | AC50 [2] |
| --- | --- | --- |
| O=C(Nc1ccccc1)c1ccc2nsnc2c1 | 11.2 µM [falling, partial curve] |  |
| CCCn1c(=O)c2[nH]c(C3CCCC3)nc2n(CCC)c1=O |  | 0.126 µM [rising, full curve, poor fit] |
| CCOC(=O)N1CCC(NC(=O)c2cccc3c2C(=O)N(CCOC)C3)CC1 | 6.51 µM [falling, single point] |  |
| COc1cccc(N2C(=O)C(Cc3c[nH]c4ccccc34)NC2=S)c1 (configuration not stated) | 23.1 µM [falling, single point] |  |
| COc1ccc(C(=O)COC(=O)CCn2nnc(-c3cccs3)n2)cc1 | 8.2 µM [rising, partial curve] |  |
| C/C(=N\NS(=O)(=O)c1cccc([N+](=O)[O-])c1)c1cc2ccccc2o1 | 20.6 µM [falling, single point] |  |
| Fc1ccc(/C=N/NC(=S)Nc2cccnc2)cc1F | 5.01 µM [rising, single point] | 5.62 µM [falling, single point] |
| COc1ccc(CCC(C)NCCc2ccc(Cl)cc2Cl)cc1 (configuration not stated) | 20 µM [falling, single point] |  |
| Cc1cc(C)n2nc(SCc3nc4ccccc4[nH]3)nc2n1 | 14.6 µM [falling, partial curve, poor fit] |  |
| Brc1ccc(Cn2c(-c3ccc(Br)o3)nc3ccccc32)o1 | 16.4 µM [falling, single point] |  |
| CCNC(=S)Nc1ccc(Cl)cc1 | 13 µM [rising, partial curve, poor fit] |  |
| O=C(CNC(=O)c1n[nH]c2ccccc12)Nc1cc(Cl)ccc1Cl | 5.8 µM [falling, single point] |  |
| O=C(COc1ccc(Cl)cc1Cl)N/N=C/C1CC=CCC1 (configuration not stated) | 1.26 µM [rising, full curve, poor fit] |  |
| CCc1cc(=O)oc2c(C)c(OCC(=O)N3CCC(C(=O)O)CC3)ccc12 | 22.4 µM [falling, single point] |  |
| Cc1ccc(/C=C2\SC(=S)N(CCC(=O)NNC(=O)c3cccnc3)C2=O)cc1 | 7.31 µM [falling, partial curve] |  |
| CCCn1c(N)c(N(CCOC)C(=O)CSCC(=O)Nc2ccc(C)cc2)c(=O)[nH]c1=O | 1.16 µM [rising, full curve, poor fit] |  |
| CCOC(=O)[C@H]1[C@H]2COc3ccccc3[C@@H]2N2C(=O)c3ccc(C)cc3NC(=O)[C@@]12C | 20.6 µM [falling, single point] |  |
| COc1ccc(NC(=S)N(Cc2cccnc2)Cc2cc3cc(OC)c(OC)cc3[nH]c2=O)cc1 | 25.1 µM [rising, single point] |  |
| CN(C(=O)c1cccnc1)c1nnc(-c2ccccn2)s1 | 0.146 µM [falling, full curve, poor fit] |  |
| CCNCC(=O)N1c2ccccc2CCc2ccc(NC(=O)OCC)cc21 | 3.16 µM [rising, single point] |  |
